The values that follow come from PubChem BioAssay AID248 (DTP/NCI, 2004).

The list shows only some results of the screen, not a fair sample: it gathers tests that were run many times, whatever their T/C, doses with no T/C, and many T/C values between a quarter and a half above the control. Further doses and runs are listed elsewhere. T/C is the treated group as % of the vehicle group. Some entries give survivors of the animals treated and no T/C: the source holds a T/C of zero for them, seemingly a mark for toxic or unscored doses. Some doses without a T/C left all or most animals alive at the check, yet need not have been tolerated: survival well below the control is almost never listed, so the zero probably covers shortened survival too. Survivors were counted at the toxicity check, usually on the fifth day, unless a day is given; later deaths do not show. Schedule codes are those of the source, taken here to give the interval after Q, in days (D) or hours (H), and the number of doses after X. Some schedules carry Z or #; the key to these is not given. For survival time, the PubChem record calls one and a half times the control and up active, and a quarter to a half above the control has no call in these data; cut-offs in other NCI protocols can differ. Some T/C values are followed by the survivors on the day toxicity was checked, most often the fifth; without a count, all were alive then. Some doses were run more than once; the results are listed from low to high.

The subject of the assay is L1210 leukemia ip in BDF1 mice, survival T/C. As to the kind of experiment: NCI In Vivo Anticancer Drug Screen. Data for tumor model L1210 Leukemia (intraperitoneal) in B6D2F1 (BDF1) mice. The settings on record: T/C endpoint: mean survival time, higher T/C = longer survival.
Setting [1] is: dose: 60.0 mg/kg/injection, schedule: Q01DX Z (ip), vehicle: methylcellulose (MC).
The mark [2] stands for this setting: dose: 400.0 mg/kg/injection, schedule: Q04DX003 (ip), vehicle: saline with Tween-80.

Turning to `CCCOC1=C(N2CC2)C(=O)C(OCCC)=C(N2CC2)C1=O`, the T/C by setting is: (dose: 2.5 mg/kg/injection, schedule: Q01DX Z (ip), vehicle: alkali diluted with saline) 125 % of control; (dose: 2.5 mg/kg/injection, schedule: Q#A X Z (ip), vehicle: alkali diluted with saline) 136 % of control; (dose: 5.0 mg/kg/injection, schedule: Q01DX Z (im), vehicle: alkali diluted with saline) 130 % of control; (dose: 5.0 mg/kg/injection, schedule: Q01DX Z (ip), vehicle: alkali diluted with saline) 125 % of control; (dose: 5.0 mg/kg/injection, schedule: Q01DX Z (sc), vehicle: alkali diluted with saline) 128 % of control; (dose: 7.5 mg/kg/injection, schedule: Q01DX009 (ip), vehicle: Klucel (hydroxypropylcellulose) (HPC)) 138 % of control. Also, the T/C (dose: 7.5 mg/kg/injection, schedule: Q04DX003 (ip), vehicle: Klucel (hydroxypropylcellulose) (HPC)) is 131 % of control; the T/C (dose: 10.0 mg/kg/injection, schedule: Q01DX Z (ip), vehicle: alkali diluted with saline) was 146 % of control; the T/C (dose: 10.0 mg/kg/injection, schedule: Q01DX Z (sc), vehicle: alkali diluted with saline) was 133 % of control; the T/C (dose: 10.0 mg/kg/injection, schedule: Q#A X Z (ip), vehicle: alkali diluted with saline) is 134 % of control; the T/C (dose: 15.0 mg/kg/injection, schedule: Q04DX003 (ip), vehicle: Klucel (hydroxypropylcellulose) (HPC)) is 137 % of control; the T/C (dose: 15.87 mg/kg/injection, schedule: Q01DX001 (ip), vehicle: saline with Tween-80) was 127 % of control. Also, the T/C by setting is: (dose: 20.0 mg/kg/injection, schedule: Q01DX Z (ip), vehicle: alkali diluted with saline) 125 % of control; (dose: 20.0 mg/kg/injection, schedule: Q01DX Z (oral), vehicle: alkali diluted with saline) 125 % of control; (dose: 40.0 mg/kg/injection, schedule: Q01DX Z (oral), vehicle: alkali diluted with saline) 139 % of control; (dose: 62.0 mg/kg/injection, schedule: Q01DX001 (ip), vehicle: alkali diluted with saline) 141 % of control; (dose: 80.0 mg/kg/injection, schedule: Q01DX001 (ip), vehicle: alkali diluted with saline) 129 % of control; (dose: 80.0 mg/kg/injection, schedule: Q07DX003 (ip), vehicle: alkali diluted with saline) 139 % of control. Further, the T/C (dose: 640.0 mg/kg/injection, schedule: Q01DX001 (ip), vehicle: alkali diluted with saline) is 125 and 134 % of control [5 of 6 alive]. The survivor count (dose: 31.75 mg/kg/injection, schedule: Q01DX001 (ip), vehicle: saline with Tween-80) is on record as 8 of 10; the survivor count (dose: 40.0 mg/kg/injection, schedule: Q#A X Z (ip), vehicle: alkali diluted with saline) was 6 of 6; the survivor count (dose: 62.5 mg/kg/injection, schedule: Q01DX001 (ip), vehicle: saline with Tween-80) is given as 3 of 10; the survivor count (dose: 80.0 mg/kg/injection, schedule: Q01DX Z (im), vehicle: alkali diluted with saline) was 6 of 6; the survivor count (dose: 80.0 mg/kg/injection, schedule: Q01DX Z (ip), vehicle: alkali diluted with saline) was 6 of 6; the survivor count (dose: 80.0 mg/kg/injection, schedule: Q01DX Z (sc), vehicle: alkali diluted with saline) is listed as 6 of 6. For the same compound, the survivor count is recorded as 2 of 6 (dose: 80.0 mg/kg/injection, schedule: Q#A X Z (ip), vehicle: alkali diluted with saline); 0 of 10 (dose: 125.0 mg/kg/injection, schedule: Q01DX001 (ip), vehicle: saline with Tween-80); 5 of 6 (dose: 160.0 mg/kg/injection, schedule: Q01DX Z (im), vehicle: alkali diluted with saline); 4 of 6 (dose: 160.0 mg/kg/injection, schedule: Q01DX Z (ip), vehicle: alkali diluted with saline); 5 of 6 (dose: 160.0 mg/kg/injection, schedule: Q01DX Z (oral), vehicle: alkali diluted with saline); 5 of 6 (dose: 160.0 mg/kg/injection, schedule: Q01DX Z (sc), vehicle: alkali diluted with saline). The survivor count is given as 2 of 6 (dose: 250.0 mg/kg/injection, schedule: Q01DX001 (ip), vehicle: alkali diluted with saline); 0 of 10 (dose: 250.0 mg/kg/injection, schedule: Q01DX001 (ip), vehicle: saline with Tween-80); 2 of 6 (dose: 320.0 mg/kg/injection, schedule: Q01DX Z (oral), vehicle: alkali diluted with saline); 0 of 10 (dose: 500.0 mg/kg/injection, schedule: Q01DX001 (ip), vehicle: saline with Tween-80); 0 of 6 (dose: 640.0 mg/kg/injection, schedule: Q01DX Z (oral), vehicle: alkali diluted with saline).

As to `O=C(Nc1ccc(C2=NCCN2)cc1)c1ccc(C(=O)Nc2ccc(C3=NCCN3)cc2)c2ccccc12`, the T/C was 125 % of control (dose: 15.0 mg/kg/injection, schedule: Q01DX Z (ip), vehicle: methylcellulose (MC)) and 139 % of control under setting [1]. For the same compound, the survivor count is 2 of 6 under setting [1] and 0 of 6 (dose: 120.0 mg/kg/injection, schedule: Q01DX Z (ip), vehicle: methylcellulose (MC)).

As to `C=C(C)C#CCN(CCO)C(C)C`, the survivor count (dose: 300.0 mg/kg/injection, schedule: Q01DX001 (ip), vehicle: other) is on record as 2 of 6.

Turning to `NC(=Nc1ccc([N+](=O)[O-])cc1)c1ccc(C(N)=Nc2ccc([N+](=O)[O-])cc2)cc1`, the survivor count by setting is: (dose: 125.0 mg/kg/injection, schedule: Q01DX015 (ip), vehicle: methylcellulose (MC)) 6 of 6; (dose: 250.0 mg/kg/injection, schedule: Q01DX015 (ip), vehicle: methylcellulose (MC)) 3 of 6; (dose: 500.0 mg/kg/injection, schedule: Q01DX015 (ip), vehicle: methylcellulose (MC)) 5 of 6.

In the case of `COc1c(N)ccc(-c2ccc(N)c(OC)c2Cl)c1Cl`, the survivor count (dose: 150.0 mg/kg/injection, schedule: Q04DX003 (ip), vehicle: saline with Tween-80) is listed as 5 of 6 and the survivor count (dose: 300.0 mg/kg/injection, schedule: Q04DX003 (ip), vehicle: saline with Tween-80) is 1 of 6.

As for `CCOC(=O)C1SC(N)=NC1=O` (stereo not drawn), the survivor count under setting [2] is 1 of 3.

For `N#CC(O)c1ccccc1` (stereo not drawn), the survivor count (dose: 15.0 mg/kg/injection, schedule: Q01DX Z (ip), vehicle: saline) was 6 of 6; the survivor count (dose: 20.0 mg/kg/injection, schedule: Q01DX001 (ip), vehicle: carboxymethylcellulose (CMC)) is 2 of 4; the survivor count (dose: 20.0 mg/kg/injection, schedule: Q01DX009 (ip), vehicle: acetone) is listed as 0 of 6; the survivor count (dose: 20.0 mg/kg/injection, schedule: Q01DX Z (ip), vehicle: saline) was 0 of 6; the survivor count (dose: 40.0 mg/kg/injection, schedule: Q01DX001 (ip), vehicle: carboxymethylcellulose (CMC)) is on record as 0 of 4; the survivor count (dose: 80.0 mg/kg/injection, schedule: Q01DX001 (ip), vehicle: carboxymethylcellulose (CMC)) was 0 of 4. Also, the survivor count by setting is: (dose: 100.0 mg/kg/injection, schedule: Q01DX001 (ip), vehicle: carboxymethylcellulose (CMC)) 0 of 4; (dose: 200.0 mg/kg/injection, schedule: Q01DX001 (ip), vehicle: carboxymethylcellulose (CMC)) 0 of 4; (dose: 400.0 mg/kg/injection, schedule: Q01DX001 (ip), vehicle: carboxymethylcellulose (CMC)) 0 of 4.

As to `CN1C2CCC1CC(OC(=O)c1ccc(O)cc1)C2` (stereo not drawn), for the setting “dose: 37.5 mg/kg/injection, schedule: Q01DX001 (ip), vehicle: saline”, the survivor count is 1 of 6.

Regarding `CCN(CC)C(=O)C1CCCCC1C` (stereo not drawn), for the setting “dose: 400.0 mg/kg/injection, schedule: Q04DX002 (ip), vehicle: saline”, the survivor count is 3 of 3.

With `CNNCc1ccccc1`, the survivor count (dose: 400.0 mg/kg/injection, schedule: Q01DX001 (ip), vehicle: saline) is given as 2 of 4.

As to `CCN(CC)CCOCCOC(=O)C(CC)(CC)c1cccc2ccccc12`, the survivor count is, setting by setting: (dose: 100.0 mg/kg/injection, schedule: Q04DX002 (ip), vehicle: saline with Tween-80) 1 of 3; (dose: 200.0 mg/kg/injection, schedule: Q04DX002 (ip), vehicle: saline with Tween-80) 0 of 3; (dose: 400.0 mg/kg/injection, schedule: Q04DX002 (ip), vehicle: saline with Tween-80) 0 of 3.

In the case of `CCC(O)C1CCCCN1` (stereo not drawn), the survivor count under setting [2] was 1 of 6.
